The text below walks through data of patent US6846911.

Results are given in words; binding and its absence hold for the method and conditions named. In cells and extracts the contact can be indirect. Some results given as binding are weak or reduced against the parent protein; the word gives no strength.

The target of assay [1] is T1, CD97 β subunit (human) (UniProt P48960).
T1 sequence: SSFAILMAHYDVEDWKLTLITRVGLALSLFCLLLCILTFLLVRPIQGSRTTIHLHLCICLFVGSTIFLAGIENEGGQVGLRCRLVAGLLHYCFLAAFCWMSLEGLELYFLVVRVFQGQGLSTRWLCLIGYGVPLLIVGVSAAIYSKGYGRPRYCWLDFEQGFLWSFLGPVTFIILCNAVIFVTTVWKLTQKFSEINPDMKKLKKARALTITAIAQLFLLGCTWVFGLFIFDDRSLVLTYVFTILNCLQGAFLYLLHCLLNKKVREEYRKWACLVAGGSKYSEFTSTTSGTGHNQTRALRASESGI
Nature of the assay: co-immunoprecipitation.

Assay [2] deals with T1, CD97 β subunit (human). Nature of the assay: co-immunoprecipitation; told in words.
Assay [3] deals with T1, CD97 β subunit (human). Put plainly: co-immunoprecipitation, nondenaturing conditions.

In the case of “CD97 α subunit (isoforms not distinguished) (from UniProt P48960 21-530) (receptor)”, the binding result in assay [1] and in assay [2] was “binds” in each case.

B1: CD97 α3 subunit (receptor, human, UniProt P48960-2 21-437, looked up)
chain: QDSRGCARWCPQNSSCVNATACRCNPGFSSFSEIITTPTETCDDINECATPSKVSCGKFSDCWNTEGSYDCVCSPGYEPVSGAKTFKNESENTCQDVDECSSGQHQCDSSTVCFNTVGSYSCRCRPGWKPRHGIPNNQKDTVCEDMTFSTWTPPPGVHSQTLSRFFDKVQDLGRDSKTSSAEVTIQNVIKLVDELMEAPGDVEALAPPVRHLIATQLLSNLEDIMRILAKSLPKGPFTYISPSNTELTLMIQERGDKNVTMGQSSARMKLNWAVAAGAEDPGPAVAGILSIQNMTTLLANASLNLHSKKQAELEEIYESSIRGVQLRRLSAVNSIFLSHNNTKELNSPILFAFSHLESSDGEAGRDPPAKDVMPGPRQELLCAFWKSDSDRGGHWATEGCQVLGSKNGSTTCQCSHL
Turning to B1, the binding entry in assay [3] is on record as “binds”.
